Test results: paper PMC10371168
Results are given in words; binding and its absence hold for the method and conditions named. Binding seen in cells or lysates may run through a third protein. Tags and fused reporters may be left off the sequences shown.

The chains behind the UniProt entries cited, without tags or fusion partners. Residues count along the entry.
UniProt Q9BPX6, residues 34-476: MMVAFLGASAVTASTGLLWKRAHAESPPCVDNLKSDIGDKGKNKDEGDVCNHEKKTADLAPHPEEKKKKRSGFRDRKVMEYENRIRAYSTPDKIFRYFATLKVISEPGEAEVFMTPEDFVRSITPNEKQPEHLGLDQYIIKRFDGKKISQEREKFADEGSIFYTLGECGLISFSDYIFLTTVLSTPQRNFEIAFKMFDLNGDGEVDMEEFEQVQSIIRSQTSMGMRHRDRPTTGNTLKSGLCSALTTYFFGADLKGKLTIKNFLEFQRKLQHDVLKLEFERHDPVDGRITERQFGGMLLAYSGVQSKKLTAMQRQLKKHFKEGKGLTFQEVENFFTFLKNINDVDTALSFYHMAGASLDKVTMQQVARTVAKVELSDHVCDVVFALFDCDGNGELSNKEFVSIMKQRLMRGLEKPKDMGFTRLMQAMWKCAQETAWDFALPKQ
UniProt Q8NE86, residues 51-351: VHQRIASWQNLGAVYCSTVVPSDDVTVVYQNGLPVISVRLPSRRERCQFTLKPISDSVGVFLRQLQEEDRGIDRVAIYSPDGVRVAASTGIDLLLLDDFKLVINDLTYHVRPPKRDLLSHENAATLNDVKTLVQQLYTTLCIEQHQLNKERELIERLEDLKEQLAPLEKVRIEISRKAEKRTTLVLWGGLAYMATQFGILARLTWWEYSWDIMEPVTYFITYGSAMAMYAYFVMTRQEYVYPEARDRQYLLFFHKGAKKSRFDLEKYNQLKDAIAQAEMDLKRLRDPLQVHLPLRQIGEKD

Molecular target: T1, HA-tagged Mrs2 (Mitochondrial RNA splicing 2) (human) (UniProt Q9HD23)
T1 sequence: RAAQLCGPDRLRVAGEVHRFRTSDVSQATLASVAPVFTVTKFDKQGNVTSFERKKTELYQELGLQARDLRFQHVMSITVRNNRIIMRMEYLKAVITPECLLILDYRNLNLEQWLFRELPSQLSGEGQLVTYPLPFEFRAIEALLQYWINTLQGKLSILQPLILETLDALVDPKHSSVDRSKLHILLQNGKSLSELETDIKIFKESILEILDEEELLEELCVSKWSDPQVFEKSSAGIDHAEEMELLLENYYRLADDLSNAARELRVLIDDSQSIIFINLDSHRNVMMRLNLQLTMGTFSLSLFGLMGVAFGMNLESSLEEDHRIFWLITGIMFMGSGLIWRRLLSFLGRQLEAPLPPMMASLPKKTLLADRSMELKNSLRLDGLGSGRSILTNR
Assay: co-IP; HEK293 co-transfected with HA-tagged Mrs2 and Flag-tagged MCU, MICU1, MCUR1 or EMRE; RIPA lysate; immunoprecipitation with HA antibody; blot with anti-Flag

binding | Substance
no binding | Flag-tagged MICU1 (from UniProt Q9BPX6 34-476)
no binding | Flag-tagged MCU (Mitochondrial Calcium Uniporter) (from UniProt Q8NE86 51-351)
